Assay [1] has as its target Rho-binding domain of human Rhotekin fused to GST (human) (UniProt Q9BST9). As to the kind of experiment: pull-down; GST-Rhotekin-RBD on agarose beads; lysates of thrombin-treated BCEC pre-treated with cell-permeable C3-transferase for 3 hours at 37°C; bound RhoA detected by immunoblot with anti-RhoA; only the target purified.
For assay [2] the target is unchanged. As to the kind of experiment: pull-down; GST-Rhotekin-RBD on agarose beads; freshly prepared BCEC lysates before and 0.5-15 min after thrombin (2 U/ml); in vitro GTPgammaS-loaded RhoA as positive control; bound RhoA detected by immunoblot with anti-RhoA; only the target purified. In general terms: A western blot detects proteins with antibodies after separation by electrophoresis.

Protein sequences, listed by entry. Tags and fused reporters are not part of them. Lines headed by an entry give the natural chain unless they say otherwise; changes in a name come on top.
UniProt Q9BST9: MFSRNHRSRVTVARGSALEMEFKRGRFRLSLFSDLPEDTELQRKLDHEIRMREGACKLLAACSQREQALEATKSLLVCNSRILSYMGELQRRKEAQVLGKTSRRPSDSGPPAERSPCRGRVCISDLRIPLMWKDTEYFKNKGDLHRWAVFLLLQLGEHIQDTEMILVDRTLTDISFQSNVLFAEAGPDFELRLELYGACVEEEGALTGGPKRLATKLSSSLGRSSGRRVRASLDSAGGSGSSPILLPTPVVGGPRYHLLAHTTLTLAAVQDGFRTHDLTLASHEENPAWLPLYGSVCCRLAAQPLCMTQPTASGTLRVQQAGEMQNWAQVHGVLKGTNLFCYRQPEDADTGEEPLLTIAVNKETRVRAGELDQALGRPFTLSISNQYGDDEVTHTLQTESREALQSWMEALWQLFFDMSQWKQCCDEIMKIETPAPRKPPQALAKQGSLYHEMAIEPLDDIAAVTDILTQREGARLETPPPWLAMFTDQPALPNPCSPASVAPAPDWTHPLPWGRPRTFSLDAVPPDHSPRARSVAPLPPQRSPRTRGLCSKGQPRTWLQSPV
UniProt P61585: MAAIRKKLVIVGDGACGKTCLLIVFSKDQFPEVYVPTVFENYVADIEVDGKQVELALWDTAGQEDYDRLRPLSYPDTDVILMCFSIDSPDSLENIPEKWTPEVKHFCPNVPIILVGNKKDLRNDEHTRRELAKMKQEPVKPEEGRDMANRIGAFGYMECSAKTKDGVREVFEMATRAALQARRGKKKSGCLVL

These results are taken from paper PMC3408431.

Results are given in words; binding and its absence hold for the method and conditions named. Binding seen in cells or lysates may run through a third protein. A result given as binding can be weak or reduced; the word gives no strength.

For the substance RhoA (from UniProt P61585 1-193), the binding result in assay [1] is reported as “binds weakly”; in assay [2], “binds”.
